# In publication PMC12670160, “A drug-repurposing screen of FDA- and EMA-approved drugs identifies two NF-κB inhibitors active against eumycetoma” (Journal of Antimicrobial Chemotherapy, 2025):
# Counter-ions that a name gives are not always drawn. The campaign covered roughly 5,300 compounds. About 130 (2.5%) showed an effect of 50% or more. The list shows a part of the results.
# Tested on: M. mycetomatis strain mm55
# Details: primary screen, metabolic activity vs growth control; 96 h, 2 µM; inhibitor
row,Structure (SMILES),% viability
1,"COc1cc([C@@H]2c3cc4c(cc3[C@@H](O[C@@H]3O[C@@H]5CO[C@@H](C)O[C@H]5[C@H](O)[C@H]3O)[C@H]3COC(=O)[C@H]23)OCO4)cc(OC)c1OP(=O)(O)O [ONC0003311, etoposide phosphate]",77.62%
2,"Cc1cn([C@@H]2C[C@@H](O)[C@H](CO)O2)c(=O)[nH]c1=O [ONC0004416, telbivudine sebivo tyzeka]",98.41%
3,"CN(Cc1ccccc1)C(=O)[C@H](Cc1ccc2ccccc2c1)NC(=O)[C@@H]1C[C@@H](O)CN1C(=O)c1cn(C)c2ccccc12 [ONC0001318, fk888]",95.71%
4,"CN(C)C(=S)SSC(=S)N(C)C [ONC0003134, thiram]",114.3%
5,"CC(C)(C)NCC(O)CSc1nc(-c2ccc(C(N)=O)s2)cs1 (centres unmarked) [ONC0003287, arotinolol]",80.62%
6,"Cc1cccc(Nc2cc(Cl)nc(SCC(=O)O)n2)c1C [ONC0001441, pirinixicacid]",85.94%
7,"CCOc1cc2ncc(C#N)c(Nc3ccc(OCc4ccccn4)c(Cl)c3)c2cc1NC(=O)/C=C/CN(C)C [ONC0004941, neratinib hki272]",60.08%
8,"O=C(N/N=C/c1ccc([N+](=O)[O-])o1)c1ccc(O)cc1 [ONC0005360, nifuroxazide]",75%
9,"CN1CCN(C(c2ccccc2)c2ccc(Cl)cc2)CC1 (centres unmarked) [ONC0003461, chlorcyclizine hydrochloride]",53.59%
10,"C[C@@H]1CN(c2c(F)c(N)c3c(=O)c(C(=O)O)cn(C4CC4)c3c2F)C[C@H](C)N1 [ONC0004146, sparfloxacin]",88.73%
11,"O=C(O)c1cc(Oc2ccc([N+](=O)[O-])cc2)cc(Oc2ccc([N+](=O)[O-])cc2)c1 [ONC0001385, compoundw]",134.4%
12,"CC12CCC(C(Br)C1=O)C2(C)C (centres unmarked) [ONC0003727, 3bromocamphor]",127.8%
13,"Cc1c(F)cccc1NC(=O)Nc1ccc(Cl)c(S(=O)(=O)[C@H]2CCCNC2)c1O [ONC0001291, danirixin]",52.88%
14,"C[C@@H]1O[C@@H]1P(=O)(O)O [ONC0000648, fosfomycin calcium]",118.9%
15,"O=c1n(CC2CO2)c(=O)n(CC2CO2)c(=O)n1CC1CO1 (centres unmarked) [ONC0002836, triglycidyl isocyanurate]",92.06%
16,"COc1cc(N)cn[n+]1-c1ccccc1 [ONC0002799, amezinium methyl sulfate]",109%
17,"CC(C)(O)c1ccn2c(-c3ccc(F)c(-c4ccc(F)cc4C#N)c3)cnc2c1F [ONC0001920, tp003]",78.09%
18,"CCOC(=O)c1c(C)[nH]c2ccc3c(c12)CN1CCc2cc(OC)ccc2C1O3 (centres unmarked) [ONC0001638, pd102807]",90.28%
19,"Cc1nnc2ccc(-c3cccc(C(F)(F)F)c3)nn12 [ONC0002575, cl218872]",65.35%
20,"FC(F)(F)c1cc(CO[C@H]2CCCN[C@H]2c2ccccc2)cc(C(F)(F)F)c1 [ONC0001523, l733060]",91.91%
21,"O=[N+]([O-])c1cc(Cl)ccc1S(=O)(=O)c1ccccc1 [ONC0003098, btb1]",84.2%

# 11 of the compounds above, with bars between the fields.
row | Structure (SMILES) | % viability
1 | COc1cc([C@@H]2c3cc4c(cc3[C@@H](O[C@@H]3O[C@@H]5CO[C@@H](C)O[C@H]5[C@H](O)[C@H]3O)[C@H]3COC(=O)[C@H]23)OCO4)cc(OC)c1OP(=O)(O)O [ONC0003311, etoposide phosphate] | 77.62%
4 | CN(C)C(=S)SSC(=S)N(C)C [ONC0003134, thiram] | 114.3%
5 | CC(C)(C)NCC(O)CSc1nc(-c2ccc(C(N)=O)s2)cs1 (centres unmarked) [ONC0003287, arotinolol] | 80.62%
6 | Cc1cccc(Nc2cc(Cl)nc(SCC(=O)O)n2)c1C [ONC0001441, pirinixicacid] | 85.94%
7 | CCOc1cc2ncc(C#N)c(Nc3ccc(OCc4ccccn4)c(Cl)c3)c2cc1NC(=O)/C=C/CN(C)C [ONC0004941, neratinib hki272] | 60.08%
11 | O=C(O)c1cc(Oc2ccc([N+](=O)[O-])cc2)cc(Oc2ccc([N+](=O)[O-])cc2)c1 [ONC0001385, compoundw] | 134.4%
15 | O=c1n(CC2CO2)c(=O)n(CC2CO2)c(=O)n1CC1CO1 (centres unmarked) [ONC0002836, triglycidyl isocyanurate] | 92.06%
16 | COc1cc(N)cn[n+]1-c1ccccc1 [ONC0002799, amezinium methyl sulfate] | 109%
17 | CC(C)(O)c1ccn2c(-c3ccc(F)c(-c4ccc(F)cc4C#N)c3)cnc2c1F [ONC0001920, tp003] | 78.09%
18 | CCOC(=O)c1c(C)[nH]c2ccc3c(c12)CN1CCc2cc(OC)ccc2C1O3 (centres unmarked) [ONC0001638, pd102807] | 90.28%
19 | Cc1nnc2ccc(-c3cccc(C(F)(F)F)c3)nn12 [ONC0002575, cl218872] | 65.35%

# The results go on:

row,Structure (SMILES),% viability
1,"Cc1ccc(S(=O)(=O)NCl)cc1 [ONC0003893, chloraminet]",82.8%
2,"CC#CCOC(=O)c1c(C)nc2sc3c(c2c1N)CCC(O)C3 (centres unmarked) [ONC0001446, sb205384]",87.2%
3,"C#C[C@]1(O)C=C[C@H]2[C@@H]3CCC4=CC(=O)CC[C@@H]4[C@H]3CC[C@@]21CC [ONC0004807, gestodene]",85.89%
4,"N#CN=C(NCCCCCCOc1ccc(Cl)cc1)Nc1ccncc1 [ONC0001039, chs828]",89.53%
5,"CCOC(=O)C1CN(Cc2ccccc2)C(=O)C1=O (centres unmarked) [ONC0000018, ebpc]",104.8%
6,"CCCCCCCCCCC(C)(C)C(=O)Nc1c(OC)cc(OC)cc1OC [ONC0004485, ci976]",111.3%
7,"CCn1c(=O)[nH]c2ccccc21 [ONC0002686, 1ebio]",68.57%
8,"CCC1=C[C@@H]2CN(C1)Cc1c([nH]c3ccccc13)[C@@](C(=O)OC)(c1cc3c(cc1OC)N(C)[C@H]1[C@@](O)(C(=O)OC)[C@H](OC(C)=O)[C@]4(CC)C=CCN5CC[C@]31[C@@H]54)C2 [ONC0001957, vinorelbine ditartrate]",90.72%
9,"O=C(O)C1=CCNCC1 [ONC0002998, isoguvacine]",69.52%
10,"CS(=O)(=O)Nc1ccc([N+](=O)[O-])cc1Oc1ccccc1 [ONC0002874, nimesulide]",89.15%
11,"COc1cc(C)nc(-n2nc(C)cc2OC)n1 [ONC0002327, epirizole]",79.36%
12,"CCn1cc(C(=O)O)c(=O)c2cc(F)c(N3CCNC(C)C3)c(F)c21 (centres unmarked) [ONC0000681, lomefloxacin hydrochloride]",124.2%
13,"C[C@H](N)C(=O)O [ONC0002657, lalanine]",104.9%
14,"N[C@@H](CN1C=CC(=O)C(=O)C1)C(=O)O [ONC0002117, lmimosine]",76.12%
15,"C=CC(=O)Nc1cccc(Nc2nc(Nc3ccc(NC4CN(CCF)C4)cc3OC)ncc2C(F)(F)F)c1 [ONC0000789, cnx2006]",96.85%
16,"c1ccc2c(Oc3nc(Nc4ccc(N5CCOCC5)cc4)c4ncn(C5CCCCC5)c4n3)cccc2c1 [ONC0004354, purmorphamine]",98.51%
17,"N#Cc1ccc(Cn2cncc2CN2CCN(c3cccc(Cl)c3)C(=O)C2)cc1 [ONC0000972, l778123 hydrochloride]",78.78%
18,"Nc1ncnc2nc(-c3ccc(N4CCOCC4)nc3)cc(-c3cccc(Br)c3)c12 [ONC0001326, abt702]",121.8%
19,"C=CCn1c(=O)n([C@@H]2O[C@H](CO)[C@@H](O)[C@H]2O)c2nc(N)[nH]c(=O)c21 [ONC0005331, rwj21757]",124.9%
20,"C[C@]12C=CC(=O)C=C1CC[C@@H]1[C@@H]2C(=O)C[C@@]2(C)[C@H]1CC[C@]2(O)C(=O)CO [ONC0000521, prednisone]",76.96%
21,"COc1cc(NC(=O)c2ccc(-c3ccc(Cl)cc3)o2)cc(OC)c1 [ONC0004499, a803467]",65.53%

row,Structure (SMILES),% viability
1,"CCOC(=O)CCC(=O)O[C@H]1[C@H](O[C@@H]2[C@@H](C)[C@H](O[C@H]3C[C@@](C)(OC)[C@@H](O)[C@H](C)O3)[C@@H](C)C(=O)O[C@H](CC)[C@@](C)(O)[C@H](O)[C@@H](C)C(=O)[C@H](C)C[C@@]2(C)O)O[C@H](C)C[C@@H]1N(C)C [ONC0000705, erythromycin ethylsuccinate]",80.07%
2,"CC(=O)OC[C@H]1O[C@@H](n2ccc(=O)[nH]c2=O)[C@H](OC(C)=O)[C@@H]1OC(C)=O [ONC0003688, 235trioacetyluridine]",61.4%
3,"Cc1cc(NC(=O)C2C(=O)c3ccccc3S(=O)(=O)N2C)no1 (centres unmarked) [ONC0002885, isoxicam]",123.7%
4,"COc1cc2nccc(Oc3ccc(NC(=O)Nc4ccc(F)cc4F)c(F)c3)c2cc1OC [ONC0003524, ki8751]",129%
5,"C#CC1(OCC(O)CN2CCN(c3cccc(C(F)(F)F)c3)CC2)CCCCC1 (centres unmarked) [ONC0002373, terciprazine]",68.7%
6,"CNC(=O)c1ccc2c(c1)CCO[C@H]2CCN1CCN(c2ccc(C(N)=O)cc2)CC1 [ONC0003033, pnu142633]",68.66%
7,"CN1CCN(C2=Nc3ccccc3Sc3ccc(Cl)cc32)CC1 [ONC0005479, clothiapine]",75.75%
8,"CC(CC(C(N)=O)(c1ccccc1)c1ccccc1)N(C)C (centres unmarked) [ONC0004171, aminopentamide]",131.7%
9,"CC(C)(F)C[C@H](N[C@@H](c1ccc(-c2ccc(S(C)(=O)=O)cc2)cc1)C(F)(F)F)C(=O)NC1(C#N)CC1 [ONC0004613, odanacatib mk 0822]",90.81%
10,"COc1cc(-n2c(S)nc3ccccc3c2=O)c(Cl)cc1Cl [ONC0004315, mdivi1]",127.2%
11,"COc1cc(C)c(/C=C/C(C)=C/C=C/C(C)=C/C(=O)O)c(C)c1C [ONC0004851, acitretin]",180.9%
12,"CCCCCCCCCCCCCCCCCC(=O)OCC(O)CO (centres unmarked) [ONC0002777, monostearin]",78.83%
13,"CCCCCCCCCCCCCCC[C@@H](O)[C@@H](N)CO [ONC0003442, dihydrosphingosine derythro]",75.68%
14,"OB1OCc2cc(Cl)ccc21 [ONC0003781, an2718]",116%
15,"CCN1C(=O)CNc2ncc(-c3ccc(-c4nc[nH]n4)nc3C)nc21 [ONC0001188, cc115]",73.45%
16,"O=C(Nc1ccc2[nH]ccc2c1)c1ccccc1 [ONC0001160, oac2]",142.5%
17,"Nc1ccc(C(=O)Oc2ccccc2)c(O)c1 [ONC0003304, phenyl aminosalicylate]",56.4%
18,"CNNCc1ccc(C(=O)NC(C)C)cc1 [ONC0004216, procarbazine hydrochloride]",81.22%
19,C/C(=N\NC(=S)N1CCC1)c1ccccn1 [nsc319726],6.057%
20,"O=c1[nH]c(=O)n([C@H]2C[C@H](O)[C@@H](CO)O2)cc1F [ONC0002845, floxuridine]",24.01%
